# Measured values taken from the supplement of paper PMC11732987, “Enantioselective OTUD7B fragment discovery through chemoproteomics screening and high-throughput optimisation” (Communications Chemistry, 2025).
# By UniProt entry, the sequences of proteins in these tests, tags left out. Where a name states a change or a piece, a line headed by the entry shows the natural chain unless it says otherwise. Residues count along the entry.
# UniProt Q8NG31: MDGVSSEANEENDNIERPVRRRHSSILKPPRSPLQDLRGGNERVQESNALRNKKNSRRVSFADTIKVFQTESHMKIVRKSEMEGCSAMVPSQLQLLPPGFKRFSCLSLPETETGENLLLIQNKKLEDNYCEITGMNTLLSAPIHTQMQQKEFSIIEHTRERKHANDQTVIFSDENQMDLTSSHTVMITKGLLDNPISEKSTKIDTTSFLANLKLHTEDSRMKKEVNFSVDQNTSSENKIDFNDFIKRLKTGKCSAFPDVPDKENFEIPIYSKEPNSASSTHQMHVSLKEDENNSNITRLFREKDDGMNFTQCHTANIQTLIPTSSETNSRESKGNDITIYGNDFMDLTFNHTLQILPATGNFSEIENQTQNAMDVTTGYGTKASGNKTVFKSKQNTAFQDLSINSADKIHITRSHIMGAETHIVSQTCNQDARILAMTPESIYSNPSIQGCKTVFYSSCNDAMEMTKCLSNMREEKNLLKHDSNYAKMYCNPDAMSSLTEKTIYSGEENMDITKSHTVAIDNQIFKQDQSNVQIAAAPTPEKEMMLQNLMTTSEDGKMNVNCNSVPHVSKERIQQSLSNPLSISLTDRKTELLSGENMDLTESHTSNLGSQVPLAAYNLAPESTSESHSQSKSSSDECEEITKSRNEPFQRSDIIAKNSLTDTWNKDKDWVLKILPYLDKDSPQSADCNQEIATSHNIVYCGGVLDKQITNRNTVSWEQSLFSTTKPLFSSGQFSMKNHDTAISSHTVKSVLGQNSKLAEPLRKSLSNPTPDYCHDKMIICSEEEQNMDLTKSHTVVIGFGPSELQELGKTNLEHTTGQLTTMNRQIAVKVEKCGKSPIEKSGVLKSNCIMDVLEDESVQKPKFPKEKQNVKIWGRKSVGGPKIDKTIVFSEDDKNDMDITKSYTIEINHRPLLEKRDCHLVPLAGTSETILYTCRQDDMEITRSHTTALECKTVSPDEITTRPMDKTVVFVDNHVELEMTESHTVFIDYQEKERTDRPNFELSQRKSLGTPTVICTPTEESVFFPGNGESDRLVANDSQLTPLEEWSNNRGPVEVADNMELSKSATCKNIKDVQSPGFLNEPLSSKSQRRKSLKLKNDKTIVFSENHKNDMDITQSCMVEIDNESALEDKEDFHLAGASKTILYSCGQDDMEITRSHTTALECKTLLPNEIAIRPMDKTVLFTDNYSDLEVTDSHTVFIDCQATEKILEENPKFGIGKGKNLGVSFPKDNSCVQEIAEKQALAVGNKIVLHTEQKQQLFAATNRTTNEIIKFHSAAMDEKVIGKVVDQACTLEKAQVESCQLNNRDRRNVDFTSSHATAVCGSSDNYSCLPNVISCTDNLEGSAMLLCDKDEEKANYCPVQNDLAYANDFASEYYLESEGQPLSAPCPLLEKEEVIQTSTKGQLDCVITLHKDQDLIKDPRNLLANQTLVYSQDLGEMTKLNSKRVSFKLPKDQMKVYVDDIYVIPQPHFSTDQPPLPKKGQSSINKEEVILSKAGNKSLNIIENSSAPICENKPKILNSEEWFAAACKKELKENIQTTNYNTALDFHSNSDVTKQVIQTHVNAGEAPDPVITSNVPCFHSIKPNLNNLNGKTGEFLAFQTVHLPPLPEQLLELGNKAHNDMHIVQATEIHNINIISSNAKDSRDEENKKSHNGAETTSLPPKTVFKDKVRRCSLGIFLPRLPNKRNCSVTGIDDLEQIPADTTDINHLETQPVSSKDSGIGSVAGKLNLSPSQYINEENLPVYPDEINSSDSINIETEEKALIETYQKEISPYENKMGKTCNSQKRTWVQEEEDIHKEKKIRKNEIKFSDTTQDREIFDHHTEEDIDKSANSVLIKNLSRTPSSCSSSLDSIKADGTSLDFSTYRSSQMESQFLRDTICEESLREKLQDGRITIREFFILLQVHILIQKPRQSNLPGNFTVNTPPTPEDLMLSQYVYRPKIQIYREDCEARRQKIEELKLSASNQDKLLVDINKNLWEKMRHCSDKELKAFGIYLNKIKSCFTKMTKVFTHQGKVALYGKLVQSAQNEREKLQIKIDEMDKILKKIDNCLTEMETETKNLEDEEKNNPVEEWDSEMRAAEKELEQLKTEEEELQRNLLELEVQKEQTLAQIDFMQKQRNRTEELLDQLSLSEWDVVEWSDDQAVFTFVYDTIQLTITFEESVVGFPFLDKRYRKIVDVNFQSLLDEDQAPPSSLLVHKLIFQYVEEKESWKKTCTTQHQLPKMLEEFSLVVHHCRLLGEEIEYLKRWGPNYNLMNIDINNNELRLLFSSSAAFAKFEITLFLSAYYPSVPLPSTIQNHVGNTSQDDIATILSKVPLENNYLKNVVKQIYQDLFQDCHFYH
# UniProt O75427, 614-633: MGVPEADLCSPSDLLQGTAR
# UniProt Q8IXQ5, whole entry, looked up: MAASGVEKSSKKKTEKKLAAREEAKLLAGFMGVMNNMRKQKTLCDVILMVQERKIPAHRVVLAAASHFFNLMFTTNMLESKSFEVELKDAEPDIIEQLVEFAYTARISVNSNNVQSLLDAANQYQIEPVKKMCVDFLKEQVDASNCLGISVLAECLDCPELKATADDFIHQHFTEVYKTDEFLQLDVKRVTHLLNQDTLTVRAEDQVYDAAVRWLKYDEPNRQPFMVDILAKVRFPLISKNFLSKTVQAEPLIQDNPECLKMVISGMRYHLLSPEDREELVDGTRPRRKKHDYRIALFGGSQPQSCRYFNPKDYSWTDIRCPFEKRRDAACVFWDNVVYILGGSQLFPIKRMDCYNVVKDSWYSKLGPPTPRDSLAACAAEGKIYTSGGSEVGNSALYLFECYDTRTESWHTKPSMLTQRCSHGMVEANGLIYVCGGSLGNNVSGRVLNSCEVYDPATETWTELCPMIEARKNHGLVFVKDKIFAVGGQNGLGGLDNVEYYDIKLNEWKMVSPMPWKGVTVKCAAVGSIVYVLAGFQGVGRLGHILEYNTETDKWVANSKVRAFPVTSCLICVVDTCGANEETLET
# UniProt P49917, 2-25: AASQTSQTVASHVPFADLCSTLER
# UniProt Q9UPQ0, 2-29: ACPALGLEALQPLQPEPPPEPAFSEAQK
# UniProt Q07866, 415-437: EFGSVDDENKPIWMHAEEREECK
# UniProt Q6ZN17: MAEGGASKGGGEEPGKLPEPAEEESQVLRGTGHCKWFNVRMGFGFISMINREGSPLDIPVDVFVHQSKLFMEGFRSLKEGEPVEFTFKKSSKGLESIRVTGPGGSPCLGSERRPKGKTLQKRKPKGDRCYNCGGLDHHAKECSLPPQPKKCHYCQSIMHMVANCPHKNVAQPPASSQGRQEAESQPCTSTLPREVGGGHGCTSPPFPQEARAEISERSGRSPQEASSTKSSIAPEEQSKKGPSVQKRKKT
# UniProt O15243: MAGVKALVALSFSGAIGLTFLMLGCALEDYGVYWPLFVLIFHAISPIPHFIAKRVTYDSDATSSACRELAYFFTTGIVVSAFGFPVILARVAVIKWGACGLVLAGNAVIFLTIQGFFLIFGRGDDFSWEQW
# UniProt Q15031, 202-228: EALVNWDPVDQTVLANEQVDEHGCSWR
# UniProt Q3ZCW2: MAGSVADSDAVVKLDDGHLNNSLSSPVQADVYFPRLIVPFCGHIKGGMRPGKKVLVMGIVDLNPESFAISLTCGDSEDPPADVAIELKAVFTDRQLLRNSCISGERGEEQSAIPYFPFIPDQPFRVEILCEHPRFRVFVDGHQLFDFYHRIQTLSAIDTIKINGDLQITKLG
# UniProt Q8IZD2, 1012-1037: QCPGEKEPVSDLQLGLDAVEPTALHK
# UniProt Q1L5Z9, 246-266: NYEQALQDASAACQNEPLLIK
# UniProt Q8WWI1: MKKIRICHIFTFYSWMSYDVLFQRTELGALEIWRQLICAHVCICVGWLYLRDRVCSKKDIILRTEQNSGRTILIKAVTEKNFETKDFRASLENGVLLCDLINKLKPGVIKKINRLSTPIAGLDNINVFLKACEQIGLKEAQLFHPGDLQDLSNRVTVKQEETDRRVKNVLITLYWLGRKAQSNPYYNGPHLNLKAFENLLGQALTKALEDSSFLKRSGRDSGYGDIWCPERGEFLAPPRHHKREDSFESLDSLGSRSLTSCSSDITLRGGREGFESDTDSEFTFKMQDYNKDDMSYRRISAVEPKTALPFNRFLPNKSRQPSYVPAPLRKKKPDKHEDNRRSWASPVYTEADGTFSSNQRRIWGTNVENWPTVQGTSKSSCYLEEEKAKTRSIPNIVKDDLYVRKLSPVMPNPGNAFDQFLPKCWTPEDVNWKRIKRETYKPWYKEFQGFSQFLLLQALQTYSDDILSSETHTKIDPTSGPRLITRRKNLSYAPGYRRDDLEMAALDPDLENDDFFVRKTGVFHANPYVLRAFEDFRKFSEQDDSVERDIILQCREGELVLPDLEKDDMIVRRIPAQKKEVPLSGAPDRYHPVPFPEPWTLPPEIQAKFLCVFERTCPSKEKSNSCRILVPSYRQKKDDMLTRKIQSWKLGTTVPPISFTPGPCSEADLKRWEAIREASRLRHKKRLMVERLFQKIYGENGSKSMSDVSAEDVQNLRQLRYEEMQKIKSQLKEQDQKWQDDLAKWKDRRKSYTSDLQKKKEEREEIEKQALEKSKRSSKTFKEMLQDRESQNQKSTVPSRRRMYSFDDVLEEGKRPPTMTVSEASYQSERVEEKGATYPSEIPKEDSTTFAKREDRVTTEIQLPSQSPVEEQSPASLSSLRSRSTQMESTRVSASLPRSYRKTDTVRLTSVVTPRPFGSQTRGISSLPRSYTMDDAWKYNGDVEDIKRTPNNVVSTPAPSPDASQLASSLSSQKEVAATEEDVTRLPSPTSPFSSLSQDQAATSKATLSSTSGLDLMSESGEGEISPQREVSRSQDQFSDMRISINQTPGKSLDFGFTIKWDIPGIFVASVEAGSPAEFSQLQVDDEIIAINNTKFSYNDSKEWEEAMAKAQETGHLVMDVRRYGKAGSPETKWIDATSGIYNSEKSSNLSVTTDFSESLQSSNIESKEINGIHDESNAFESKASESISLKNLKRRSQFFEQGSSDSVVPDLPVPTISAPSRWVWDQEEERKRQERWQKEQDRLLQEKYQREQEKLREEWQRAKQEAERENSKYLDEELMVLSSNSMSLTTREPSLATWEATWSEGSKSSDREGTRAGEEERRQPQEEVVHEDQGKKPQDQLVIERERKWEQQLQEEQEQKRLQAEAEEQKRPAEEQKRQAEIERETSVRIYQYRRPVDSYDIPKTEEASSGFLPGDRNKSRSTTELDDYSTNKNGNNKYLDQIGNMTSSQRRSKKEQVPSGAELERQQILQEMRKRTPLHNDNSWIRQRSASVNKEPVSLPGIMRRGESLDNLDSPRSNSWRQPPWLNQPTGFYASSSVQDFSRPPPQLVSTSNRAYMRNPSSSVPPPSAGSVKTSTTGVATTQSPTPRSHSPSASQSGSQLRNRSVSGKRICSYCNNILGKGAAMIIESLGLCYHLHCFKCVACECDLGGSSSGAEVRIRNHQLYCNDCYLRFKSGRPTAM
# UniProt P18858, whole entry, looked up: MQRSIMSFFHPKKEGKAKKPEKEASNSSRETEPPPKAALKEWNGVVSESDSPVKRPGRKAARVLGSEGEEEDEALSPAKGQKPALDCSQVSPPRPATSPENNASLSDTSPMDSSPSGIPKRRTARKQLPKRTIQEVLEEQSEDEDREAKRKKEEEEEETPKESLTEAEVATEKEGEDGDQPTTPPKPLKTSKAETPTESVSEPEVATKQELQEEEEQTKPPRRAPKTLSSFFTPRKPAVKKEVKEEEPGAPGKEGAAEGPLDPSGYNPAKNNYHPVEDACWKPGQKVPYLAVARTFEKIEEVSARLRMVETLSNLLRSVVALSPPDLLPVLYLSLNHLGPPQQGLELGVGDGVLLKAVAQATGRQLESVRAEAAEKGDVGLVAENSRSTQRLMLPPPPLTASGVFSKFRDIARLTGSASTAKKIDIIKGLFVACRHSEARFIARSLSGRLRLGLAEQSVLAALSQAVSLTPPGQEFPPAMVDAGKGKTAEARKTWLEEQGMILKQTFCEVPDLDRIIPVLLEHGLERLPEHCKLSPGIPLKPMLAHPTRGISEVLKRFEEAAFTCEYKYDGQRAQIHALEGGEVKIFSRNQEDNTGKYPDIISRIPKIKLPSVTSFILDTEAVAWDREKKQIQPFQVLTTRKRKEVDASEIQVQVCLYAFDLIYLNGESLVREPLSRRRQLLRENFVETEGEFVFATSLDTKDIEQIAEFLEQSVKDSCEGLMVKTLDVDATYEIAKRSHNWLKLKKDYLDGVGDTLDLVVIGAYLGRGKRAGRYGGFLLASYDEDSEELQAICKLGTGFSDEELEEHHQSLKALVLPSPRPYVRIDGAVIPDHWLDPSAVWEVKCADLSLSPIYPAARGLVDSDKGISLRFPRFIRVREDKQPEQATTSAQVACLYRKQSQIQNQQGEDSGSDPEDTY
# UniProt Q9H0V9: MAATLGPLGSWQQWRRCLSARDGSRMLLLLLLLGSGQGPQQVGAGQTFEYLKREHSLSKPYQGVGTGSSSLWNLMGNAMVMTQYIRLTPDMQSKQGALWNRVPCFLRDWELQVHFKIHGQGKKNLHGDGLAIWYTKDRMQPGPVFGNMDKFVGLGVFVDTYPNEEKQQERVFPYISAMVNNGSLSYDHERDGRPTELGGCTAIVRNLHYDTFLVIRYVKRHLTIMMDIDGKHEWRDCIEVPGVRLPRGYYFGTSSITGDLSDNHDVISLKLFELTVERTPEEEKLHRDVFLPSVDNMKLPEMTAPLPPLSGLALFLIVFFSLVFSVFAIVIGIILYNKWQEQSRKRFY
# Some of the results follow. The data scatter; read single values as rough.
# How the values were obtained:
# [1] = compound: ClCC(=O)N[C@@H]1CCCc2ccccc12; experiment: log2 mean competition ratio of IA-DTB cysteine labelling (DMSO/compound) (log2 ratio); higher = stronger cysteine engagement by compound; details: treatment time: 4 h, cell line lysate: HEK293T
# Method: (§1)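 IA-DTB competitive cysteine chemoproteomics in HEK293T RIPA lysate. Lysates were treated with compound 29 or 30 at 50 or 200 µM for 4 h, then IA-DTB (500 µM, 1 h), trypsin-digested, NeutrAvidin-enriched and analysed by diaPASEF. Competition ratio = intensity DMSO / intensity compound (n=4 treated, n=64 DMSO); binding: mean log2 CR ≥ 1 and p ≤ 0.05 plus QC filters. Target is the cysteine site.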
# [2] = compound: ClCC(=O)N[C@H]1CCCc2ccccc12; experiment: as above; details: treatment time: 4 h, cell line lysate: HEK293T
# Method: as §1
Target,log2 mean competition ratio ([1]; 50 µM),log2 mean competition ratio ([1]; 200 µM),log2 mean competition ratio ([2]; 50 µM),log2 mean competition ratio ([2]; 200 µM)
LONP1 C909 (UniProt P36776),-0.0614,-0.324,-0.595,-0.314
LRPPRC C113,-0.103,0.321,-0.0078,0.272
KNL1 C562 (UniProt Q8NG31),0.134,0.0696,-0.259,-0.126
LCLAT1 C304 (UniProt Q6UWP7),-0.0191,0.0875,-0.258,-0.0488
LAP3 C462 (UniProt P28838),0.481,0.157,0.369,0.101
LMAN2 C239 (UniProt Q12907),0.0834,0.0707,0.24,-0.0659
KMT2D C2249 (UniProt O14686),-0.176,-0.0183,0.49,0.0894
LIFR C889 (UniProt P42702),0.17,-0.125,0.349,0.0926
KNTC1 C2099 (UniProt P50748),-0.196,-0.357,-0.43,-0.232
LARP4 C76 (UniProt Q71RC2),-0.319,-0.248,0.57,-0.14
LRCH4 C622 (UniProt O75427),-0.252,0.357,-0.114,-0.118
LRBA C2740,-0.376,-0.0543,-0.156,-0.0561
KNTC1 C967 (UniProt P50748),-0.223,-0.245,-0.0277,-0.192
KIFBP C583 (UniProt Q96EK5),-0.0918,-0.437,-0.0081,-0.316
LRBA C832,-0.0105,-0.114,-0.0975,0.0186
KNL1 C2051 (UniProt Q8NG31),-0.152,0.202,-0.0886,-0.101
KLHL7 C306 (UniProt Q8IXQ5),0.0202,-0.078,-0.2,-0.218
LIG4 C20 (UniProt P49917),0.225,-0.104,0.378,-0.121
LAMP1 C338 (UniProt P11279),0.12,0.321,0.0677,0.261
LRCH4 C213 (UniProt O75427),0.0468,0.317,0.108,0.436
LIMCH1 C3 (UniProt Q9UPQ0),0.195,-0.624,0.461,-0.424
KNL1 C1233 (UniProt Q8NG31),0.0107,-0.0242,-0.279,0.0645
KNL1 C1881 (UniProt Q8NG31),-0.109,-0.0172,-0.0605,0.122
LIMK1 C208 (UniProt P53667),-0.249,-0.275,0.191,-0.0312
KIZ C543 (UniProt Q2M2Z5),0.117,-0.0987,0.0414,0.0529

Target,log2 mean competition ratio ([1]; 50 µM),log2 mean competition ratio ([1]; 200 µM),log2 mean competition ratio ([2]; 50 µM),log2 mean competition ratio ([2]; 200 µM)
KMT2B C10 (UniProt Q9UMN6),0.0172,-0.0377,-0.0613,0.02
LARS1 C248,0.109,-0.0823,-0.106,-0.0412
LCMT2 C408 (UniProt O60294),0.104,0.131,0.142,-0.103
LOC102724159 C24,0.523,0.168,0.781,0.302
LRP1 C2404 (UniProt Q07954),-0.0617,0.204,-0.372,0.251
KPNB1 C765,-0.117,-0.524,-0.39,-0.617
KLHL11 C526 (UniProt Q9NVR0),-0.0889,-0.247,-0.266,-0.072
KLC1 C436 (UniProt Q07866),0.0392,-0.139,0.205,-0.0616
KIFC1 C212 (UniProt Q9BW19),0.0954,-0.137,-0.265,-0.0494
KIFBP C371 (UniProt Q96EK5),0.0938,0.229,-0.0323,0.00863
LRBA C2017,0.0132,0.31,-0.175,0.328
KLC1 C320 (UniProt Q07866),-0.00814,0.287,0.0616,0.236
LIN28B C107 (UniProt Q6ZN17),0.0976,0.0286,0.227,0.0246
KLHL7 C378 (UniProt Q8IXQ5),-0.269,-0.203,-0.187,-0.602
LCORL C193 (UniProt Q8N3X6),-0.0544,0.0547,0.309,0.0989
LIN37 C176 (UniProt Q96GY3),-0.0192,0.384,-0.624,0.321
LIMCH1 C863 (UniProt Q9UPQ0),-0.118,-0.0108,-0.152,0.13
LEPROT C66 (UniProt O15243),0.13,0.296,0.0899,0.0946
KNL1 C849 (UniProt Q8NG31),0.121,0.317,0.152,0.141
LARS2 C225 (UniProt Q15031),-0.183,0.0457,0.165,-0.027
LETM1 C379 (UniProt O95202),-0.0451,0.112,0.183,0.152
KNOP1 C184 (UniProt Q1ED39),-0.251,0.126,0.0276,0.33
KIFC1 C95 (UniProt Q9BW19),0.295,-0.0686,0.221,0.0761
KNL1 C1301 (UniProt Q8NG31),0.0613,0.0457,-0.162,0.0517
LGALSL C101 (UniProt Q3ZCW2),-0.324,0.196,-0.181,0.183

Target,log2 mean competition ratio ([1]; 50 µM),log2 mean competition ratio ([1]; 200 µM),log2 mean competition ratio ([2]; 50 µM),log2 mean competition ratio ([2]; 200 µM)
KMT2E C1013 (UniProt Q8IZD2),-0.00711,-0.0503,-0.2,0.1
KLC1 C236 (UniProt Q07866),-0.107,-0.174,0.333,-0.139
LARP4B C679 (UniProt Q92615),-0.073,-0.102,-0.0457,-0.192
LOC102724159 C60,-0.172,0.0755,-0.107,-0.0194
KNL1 C774 (UniProt Q8NG31),-0.0659,-0.0857,0.211,0.0687
LONRF2 C258 (UniProt Q1L5Z9),-0.157,-0.0918,-0.251,-0.0164
LIG3 C404 (UniProt P49916),-0.0324,0.144,0.0715,0.141
KLC4 C489 (UniProt Q9NSK0),-0.457,0.111,-0.514,0.115
LIN28B C187 (UniProt Q6ZN17),-0.229,0.086,0.152,0.18
L1RE1 C76 (UniProt Q9UN81),-0.184,-0.0402,-0.0389,0.13
KLHL7 C259 (UniProt Q8IXQ5),0.052,0.0359,0.374,0.0362
LMO7 C228 (UniProt Q8WWI1),-0.219,-0.0331,0.0983,0.258
LRBA C128,-0.0341,-0.122,-0.41,-0.26
LONRF2 C220 (UniProt Q1L5Z9),-0.353,0.846,-0.142,0.54
LIG1 C846 (UniProt P18858),0.0296,-0.122,-0.0208,-0.328
LMAN2L C200 (UniProt Q9H0V9),-0.307,0.301,-0.229,0.0982
L3MBTL3 C682 (UniProt Q96JM7),0.0288,-0.18,-0.383,-0.173
LEMD2 C261 (UniProt Q8NC56),-0.203,0.271,-0.0846,0.414
KRR1 C142 (UniProt Q13601),-0.347,0.17,-0.567,0.284
LIG1 C508 (UniProt P18858),-0.247,-0.198,0.0574,0.0113
LEF1 C321 (UniProt Q9UJU2),-0.0591,0.117,-0.131,0.162
LIMCH1 C577 (UniProt Q9UPQ0),0.028,-0.109,-0.148,-0.188
LIMD1 C560 (UniProt Q9UGP4),0.00352,-0.197,-0.04,-0.41
LMO4 C73 (UniProt P61968),-0.0284,0.144,-0.0368,0.161
LARS2 C578 (UniProt Q15031),0.241,-0.139,0.183,-0.0994

Target,log2 mean competition ratio ([1]; 50 µM),log2 mean competition ratio ([1]; 200 µM),log2 mean competition ratio ([2]; 50 µM),log2 mean competition ratio ([2]; 200 µM)
KPNA1 C298 (UniProt P52294),-0.133,-0.291,-0.0038,-0.397
LIAS C106 (UniProt O43766),-0.417,0.43,0.0861,0.104
LRP1 C2660 (UniProt Q07954),-0.0783,-0.0782,0.385,0.228
LAGE3 C113 (UniProt Q14657),0.112,0.457,-0.0364,0.17
KLHL22 C11 (UniProt Q53GT1),-0.143,0.36,-0.188,0.399
"LARP1B C775, A0A3B3ISF0",0.0442,-0.159,-0.0392,-0.053
LRPPRC C130,0.00381,-0.13,-0.314,-0.104
KIF5C C66,-0.205,0.0971,-0.132,-0.00251
LENG8 C600 (UniProt Q96PV6),0.168,0.0927,0.103,0.0219
LLGL1 C1059 (UniProt Q15334),-0.285,-0.0431,-0.263,-0.115
KMT2C C4643 (UniProt Q8NEZ4),-0.104,-0.182,0.327,-0.128
LARS1 C546,-0.0757,0.286,0.231,0.351
KTN1 C1105,-0.037,0.109,-0.158,0.118
KIF7 C1229,-0.0582,0.111,-0.0551,0.147
LARP4B C633 (UniProt Q92615),0.535,0.397,0.85,0.302
KPNA4 C57 (UniProt O00629),-0.293,-0.109,-0.66,-0.0941
LARP4 C599 (UniProt Q71RC2),0.078,-0.0461,0.423,0.0635
LONP2 C372 (UniProt Q86WA8),0.146,-0.269,0.172,-0.302
KIF5B C65 (UniProt P33176),-0.353,-0.207,0.171,-0.121
LIG1 C719 (UniProt P18858),-0.112,-0.235,0.52,0.0605
LIMS1 C300 (UniProt P48059),-0.147,0.109,-0.386,0.0971
KLHL9 C559 (UniProt Q9P2J3),-0.109,-0.0204,-0.172,-0.0876
LIMCH1 C333 (UniProt Q9UPQ0),0.0572,-0.0778,-0.107,-0.0803
